Test results published in PMC7862507, “Adrenomedullin for steroid-resistant ulcerative colitis: a randomized, double-blind, placebo-controlled phase-2a clinical trial” (Journal of Gastroenterology, 2020).

Test system: C4
Test: Complement component C4
Type: in vivo, Japanese patients
Conditions: mean ± SD

CC[C@H](C)[C@H](NC(=O)[C@H](CCC(N)=O)NC(=O)[C@H](Cc1c[nH]cn1)NC(=O)[C@H](C)NC(=O)[C@H](CC(C)C)NC(=O)[C@H](CCCCN)NC(=O)[C@H](CCC(N)=O)NC(=O)[C@@H](NC(=O)[C@@H](NC(=O)[C@@H]1CSSC[C@H](NC(=O)CNC(=O)[C@H](Cc2ccccc2)NC(=O)[C@H](CO)NC(=O)[C@H](CCCNC(=N)N)NC(=O)[C@H](CC(C)C)NC(=O)CNC(=O)[C@H](CCC(N)=O)NC(=O)[C@H](Cc2ccccc2)NC(=O)[C@H](CC(N)=O)NC(=O)[C@H](CC(N)=O)NC(=O)[C@H](CCSC)NC(=O)[C@H](CO)NC(=O)[C@H](CCC(N)=O)NC(=O)[C@H](CCCNC(=N)N)NC(=O)[C@@H](N)Cc2ccc(O)cc2)C(=O)N[C@@H](CCCNC(=N)N)C(=O)N[C@@H](Cc2ccccc2)C(=O)NCC(=O)N[C@@H]([C@@H](C)O)C(=O)N1)[C@@H](C)O)C(C)C)C(=O)N[C@@H](Cc1ccc(O)cc1)C(=O)N[C@@H](CCC(N)=O)C(=O)N[C@@H](Cc1ccccc1)C(=O)N[C@H](C(=O)N[C@@H](CC(=O)O)C(=O)N[C@@H](CCCCN)C(=O)N[C@@H](CC(=O)O)C(=O)N[C@@H](CCCCN)C(=O)N[C@@H](CC(=O)O)C(=O)N[C@@H](CC(N)=O)C(=O)N[C@H](C(=O)N[C@@H](C)C(=O)N1CCC[C@H]1C(=O)N[C@@H](CCCNC(=N)N)C(=O)N[C@@H](CO)C(=O)N[C@@H](CCCCN)C(=O)N[C@H](C(=O)N[C@@H](CO)C(=O)N1CCC[C@H]1C(=O)N[C@@H](CCC(N)=O)C(=O)NCC(=O)N[C@@H](Cc1ccc(O)cc1)C(N)=O)[C@@H](C)CC)C(C)C)[C@@H](C)O [Adrenomedullin]
C4 (AM 5 ng/kg/min (n = 3), 2 W, Pre 35 ± 7): 34 ± 4 mg/dL
C4 (AM 5 ng/kg/min (n = 3), 4 W, Pre 35 ± 7): 27 ± 5 mg/dL
C4 (AM 5 ng/kg/min (n = 3), 8 W, Pre 35 ± 7): 35 ± 13 mg/dL
C4 (AM 10 ng/kg/min (n = 3), 2 W, Pre 30 ± 9): 32 ± 11 mg/dL
C4 (AM 10 ng/kg/min (n = 3), 4 W, Pre 30 ± 9): 27 ± 12 mg/dL
C4 (AM 10 ng/kg/min (n = 3), 8 W, Pre 30 ± 9): 28 ± 7 mg/dL
C4 (AM 15 ng/kg/min (n = 3), 2 W, Pre 35 ± 11): 35 ± 11 mg/dL
C4 (AM 15 ng/kg/min (n = 3), 4 W, Pre 35 ± 11): 23 ± 1 mg/dL
C4 (AM 15 ng/kg/min (n = 3), 8 W, Pre 35 ± 11): 22 ± 2 mg/dL
